The results in this text go back to publication PMC7067851, “Formation of pre-pore complexes of pneumolysin is accompanied by a decrease in short-range order of lipid molecules throughout vesicle bilayers” (Scientific Reports, 2020).

Amino acid sequences for entries named in this document (tags omitted). A change or cut given only in a name is not applied to a line headed by its entry.
UniProt Q04IN8, whole entry, looked up, stated change not applied: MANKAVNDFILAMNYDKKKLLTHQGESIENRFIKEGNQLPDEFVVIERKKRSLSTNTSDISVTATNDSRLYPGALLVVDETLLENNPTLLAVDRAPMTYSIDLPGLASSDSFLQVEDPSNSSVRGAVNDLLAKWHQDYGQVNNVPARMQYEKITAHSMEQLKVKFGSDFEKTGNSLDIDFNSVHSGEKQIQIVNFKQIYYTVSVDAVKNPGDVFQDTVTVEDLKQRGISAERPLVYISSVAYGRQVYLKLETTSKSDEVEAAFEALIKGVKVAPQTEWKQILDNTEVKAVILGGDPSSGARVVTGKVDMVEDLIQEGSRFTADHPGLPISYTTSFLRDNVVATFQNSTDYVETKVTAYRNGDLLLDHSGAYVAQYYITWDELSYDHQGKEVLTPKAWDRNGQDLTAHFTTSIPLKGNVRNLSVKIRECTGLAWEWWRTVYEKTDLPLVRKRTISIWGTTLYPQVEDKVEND

These are yes or no findings as the source states them, for the method shown.

The test has as its target pneumolysin point mutant N339R (Streptococcus pneumoniae) (UniProt Q04IN8). In words: negative-stain transmission electron microscopy; protein incubated with unilamellar liposomes (1:1 POPC/chol), stained with 1% w/v uranyl acetate on a copper grid; membrane-bound oligomeric structures visualised; both purified.

For “pneumolysin point mutant N339R (from UniProt Q04IN8 1-471)”, the binding entry is “no binding”.
